Reference: the supplement of paper PMC10849652
This is one part of the list.

By UniProt entry, the sequences of proteins in these tests, tags left out. Where a name states a change or a piece, a line headed by the entry shows the natural chain unless it says otherwise.
UniProt P21980: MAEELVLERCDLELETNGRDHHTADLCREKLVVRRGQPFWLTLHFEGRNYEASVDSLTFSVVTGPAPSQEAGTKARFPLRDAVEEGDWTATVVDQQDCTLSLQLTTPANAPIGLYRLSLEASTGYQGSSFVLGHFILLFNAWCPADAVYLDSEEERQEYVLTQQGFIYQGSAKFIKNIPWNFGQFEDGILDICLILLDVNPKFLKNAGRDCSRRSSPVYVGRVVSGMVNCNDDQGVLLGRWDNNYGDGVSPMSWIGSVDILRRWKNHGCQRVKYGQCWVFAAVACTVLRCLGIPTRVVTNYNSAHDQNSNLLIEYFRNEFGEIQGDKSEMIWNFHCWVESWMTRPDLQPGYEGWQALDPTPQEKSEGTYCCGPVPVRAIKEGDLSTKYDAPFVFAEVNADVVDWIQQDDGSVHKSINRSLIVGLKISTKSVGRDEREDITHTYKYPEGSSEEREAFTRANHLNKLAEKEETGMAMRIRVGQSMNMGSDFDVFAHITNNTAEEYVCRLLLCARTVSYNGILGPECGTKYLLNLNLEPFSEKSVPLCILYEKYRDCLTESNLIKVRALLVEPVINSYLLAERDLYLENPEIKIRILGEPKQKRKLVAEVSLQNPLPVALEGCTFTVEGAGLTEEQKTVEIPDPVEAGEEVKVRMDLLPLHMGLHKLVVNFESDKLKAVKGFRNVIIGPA
UniProt Q5JTD0: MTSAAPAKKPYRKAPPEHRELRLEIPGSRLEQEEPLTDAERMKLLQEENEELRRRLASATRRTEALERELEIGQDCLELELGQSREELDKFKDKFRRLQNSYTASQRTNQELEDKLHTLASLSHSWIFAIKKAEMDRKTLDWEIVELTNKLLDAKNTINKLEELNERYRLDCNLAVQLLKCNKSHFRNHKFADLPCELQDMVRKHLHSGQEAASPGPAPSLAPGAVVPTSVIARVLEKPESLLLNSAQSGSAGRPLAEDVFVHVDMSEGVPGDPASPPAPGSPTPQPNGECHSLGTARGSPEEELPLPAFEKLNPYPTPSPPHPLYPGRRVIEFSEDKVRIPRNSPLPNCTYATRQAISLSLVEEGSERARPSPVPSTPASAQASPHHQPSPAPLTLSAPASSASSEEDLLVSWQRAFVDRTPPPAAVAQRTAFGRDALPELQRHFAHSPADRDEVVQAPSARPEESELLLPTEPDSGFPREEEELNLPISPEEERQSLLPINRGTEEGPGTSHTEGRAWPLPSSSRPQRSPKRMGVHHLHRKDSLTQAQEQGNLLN
UniProt Q01664: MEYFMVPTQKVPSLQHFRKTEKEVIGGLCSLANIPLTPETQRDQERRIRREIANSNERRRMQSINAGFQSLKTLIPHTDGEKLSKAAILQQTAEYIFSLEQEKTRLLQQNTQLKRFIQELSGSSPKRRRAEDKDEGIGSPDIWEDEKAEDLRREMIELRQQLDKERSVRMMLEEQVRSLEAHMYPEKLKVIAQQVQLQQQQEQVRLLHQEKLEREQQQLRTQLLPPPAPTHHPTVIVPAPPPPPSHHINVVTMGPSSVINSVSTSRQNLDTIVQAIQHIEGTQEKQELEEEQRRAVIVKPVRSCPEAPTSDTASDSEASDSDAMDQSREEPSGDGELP
UniProt Q92734, whole entry, looked up: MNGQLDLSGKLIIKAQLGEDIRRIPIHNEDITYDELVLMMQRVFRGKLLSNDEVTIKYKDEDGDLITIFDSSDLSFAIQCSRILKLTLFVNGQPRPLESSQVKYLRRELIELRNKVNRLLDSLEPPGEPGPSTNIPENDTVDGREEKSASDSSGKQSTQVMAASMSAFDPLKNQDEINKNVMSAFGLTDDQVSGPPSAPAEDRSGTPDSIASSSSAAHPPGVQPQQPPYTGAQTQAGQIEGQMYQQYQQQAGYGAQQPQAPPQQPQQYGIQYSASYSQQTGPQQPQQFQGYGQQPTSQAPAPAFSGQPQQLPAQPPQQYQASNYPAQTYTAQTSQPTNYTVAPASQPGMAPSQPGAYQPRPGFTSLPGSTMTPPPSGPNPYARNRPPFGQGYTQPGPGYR
UniProt Q9Y584: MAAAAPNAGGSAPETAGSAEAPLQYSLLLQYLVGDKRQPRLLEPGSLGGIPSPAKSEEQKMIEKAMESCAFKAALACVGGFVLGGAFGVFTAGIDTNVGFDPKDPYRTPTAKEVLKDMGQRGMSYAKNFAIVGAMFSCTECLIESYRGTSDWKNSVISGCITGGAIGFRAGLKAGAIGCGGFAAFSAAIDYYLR
UniProt Q3ZCQ8: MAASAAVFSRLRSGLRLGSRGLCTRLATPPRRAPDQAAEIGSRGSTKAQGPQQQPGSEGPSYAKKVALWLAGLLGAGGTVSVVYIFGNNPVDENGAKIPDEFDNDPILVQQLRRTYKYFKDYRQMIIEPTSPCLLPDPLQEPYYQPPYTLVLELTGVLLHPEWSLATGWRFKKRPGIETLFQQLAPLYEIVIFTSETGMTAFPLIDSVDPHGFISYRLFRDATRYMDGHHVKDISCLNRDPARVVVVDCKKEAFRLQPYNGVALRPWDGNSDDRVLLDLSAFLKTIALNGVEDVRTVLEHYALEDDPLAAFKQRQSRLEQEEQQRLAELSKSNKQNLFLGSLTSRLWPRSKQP
UniProt Q01085: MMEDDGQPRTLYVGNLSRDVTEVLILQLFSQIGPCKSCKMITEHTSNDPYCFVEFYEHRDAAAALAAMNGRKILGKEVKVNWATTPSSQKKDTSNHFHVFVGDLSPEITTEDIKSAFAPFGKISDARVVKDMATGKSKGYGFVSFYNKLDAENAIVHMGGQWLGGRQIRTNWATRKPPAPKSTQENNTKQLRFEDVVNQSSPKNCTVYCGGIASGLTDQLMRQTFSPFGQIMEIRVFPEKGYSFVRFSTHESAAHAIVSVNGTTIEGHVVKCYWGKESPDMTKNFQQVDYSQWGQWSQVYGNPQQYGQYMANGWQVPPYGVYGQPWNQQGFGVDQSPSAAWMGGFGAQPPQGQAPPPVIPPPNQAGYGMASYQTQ
UniProt Q8TC07: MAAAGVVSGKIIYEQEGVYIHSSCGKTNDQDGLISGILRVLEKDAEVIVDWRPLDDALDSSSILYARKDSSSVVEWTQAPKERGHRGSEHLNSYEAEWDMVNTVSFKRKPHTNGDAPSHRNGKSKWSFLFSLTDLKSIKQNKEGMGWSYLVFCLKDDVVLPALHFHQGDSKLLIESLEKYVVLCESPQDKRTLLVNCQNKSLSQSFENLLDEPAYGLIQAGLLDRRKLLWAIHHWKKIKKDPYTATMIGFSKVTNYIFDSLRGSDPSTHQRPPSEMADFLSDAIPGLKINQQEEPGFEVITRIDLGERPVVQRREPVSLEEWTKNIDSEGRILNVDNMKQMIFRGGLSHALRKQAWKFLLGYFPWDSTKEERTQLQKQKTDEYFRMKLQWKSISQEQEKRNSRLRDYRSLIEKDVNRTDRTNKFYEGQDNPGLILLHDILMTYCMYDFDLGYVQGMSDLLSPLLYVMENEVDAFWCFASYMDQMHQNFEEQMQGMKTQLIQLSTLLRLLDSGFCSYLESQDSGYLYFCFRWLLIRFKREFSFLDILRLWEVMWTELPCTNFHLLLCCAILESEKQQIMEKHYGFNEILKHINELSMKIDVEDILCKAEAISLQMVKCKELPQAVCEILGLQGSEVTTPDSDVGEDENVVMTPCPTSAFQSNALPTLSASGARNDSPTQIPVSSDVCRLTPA
UniProt Q8NI27: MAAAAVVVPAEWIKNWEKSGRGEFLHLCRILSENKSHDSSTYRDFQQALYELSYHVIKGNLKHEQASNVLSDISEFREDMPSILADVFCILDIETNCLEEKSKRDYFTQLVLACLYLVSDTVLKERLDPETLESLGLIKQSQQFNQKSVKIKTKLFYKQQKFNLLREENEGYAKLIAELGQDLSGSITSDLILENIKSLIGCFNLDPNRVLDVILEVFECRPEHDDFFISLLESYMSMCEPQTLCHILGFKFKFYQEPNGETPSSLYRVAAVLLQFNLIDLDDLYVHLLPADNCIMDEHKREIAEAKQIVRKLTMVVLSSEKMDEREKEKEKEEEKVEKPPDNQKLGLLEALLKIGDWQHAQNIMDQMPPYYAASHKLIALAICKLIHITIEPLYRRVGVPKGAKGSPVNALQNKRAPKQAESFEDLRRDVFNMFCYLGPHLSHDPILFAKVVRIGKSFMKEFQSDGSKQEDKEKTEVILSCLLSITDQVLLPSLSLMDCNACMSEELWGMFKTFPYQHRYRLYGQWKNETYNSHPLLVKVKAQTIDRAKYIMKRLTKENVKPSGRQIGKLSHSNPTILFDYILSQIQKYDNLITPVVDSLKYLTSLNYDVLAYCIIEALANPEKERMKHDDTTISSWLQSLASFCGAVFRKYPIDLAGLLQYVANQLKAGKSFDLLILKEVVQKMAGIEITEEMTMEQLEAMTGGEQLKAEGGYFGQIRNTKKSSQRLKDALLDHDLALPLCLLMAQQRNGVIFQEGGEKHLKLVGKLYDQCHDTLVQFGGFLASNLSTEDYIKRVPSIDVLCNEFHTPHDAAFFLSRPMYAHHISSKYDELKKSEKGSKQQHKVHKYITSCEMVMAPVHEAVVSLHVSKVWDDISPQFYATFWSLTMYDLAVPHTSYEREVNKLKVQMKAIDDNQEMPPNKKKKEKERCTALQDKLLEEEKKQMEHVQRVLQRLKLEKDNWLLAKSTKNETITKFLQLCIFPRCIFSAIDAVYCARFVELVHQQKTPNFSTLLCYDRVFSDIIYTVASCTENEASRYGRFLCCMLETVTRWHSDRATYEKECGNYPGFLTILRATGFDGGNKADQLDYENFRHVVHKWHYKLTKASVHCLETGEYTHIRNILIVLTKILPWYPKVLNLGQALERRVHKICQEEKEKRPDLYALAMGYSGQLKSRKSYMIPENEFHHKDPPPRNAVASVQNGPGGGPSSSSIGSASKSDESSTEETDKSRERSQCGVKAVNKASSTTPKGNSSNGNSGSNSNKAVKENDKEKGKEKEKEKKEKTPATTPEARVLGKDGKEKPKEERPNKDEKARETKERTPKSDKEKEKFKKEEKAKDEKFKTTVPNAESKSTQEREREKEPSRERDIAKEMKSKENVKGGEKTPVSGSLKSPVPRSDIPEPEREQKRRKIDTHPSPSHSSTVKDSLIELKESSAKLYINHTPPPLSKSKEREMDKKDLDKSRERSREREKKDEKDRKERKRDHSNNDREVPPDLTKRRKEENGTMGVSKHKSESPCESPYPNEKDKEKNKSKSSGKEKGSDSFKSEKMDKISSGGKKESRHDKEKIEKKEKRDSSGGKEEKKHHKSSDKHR

How the values were obtained:
Assay in all cases: log2 fold change, soluble protein after heating vs DMSO (PISA); higher = thermal stabilisation; K562 cells, 10 uM, 30 min; active = over 0.2 and 3.5 SD of the protein, either way, in both replicates (recomputed)
[1] = compound: C1=CC=C(C=C1)[C@H](COC2=CC3=C(C=C2)NC(=O)N3)NC(=O)C4=CC=CN(C4=O)CC5=CC(=C(C=C5)F)F
Procedure, shortened: (§1)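 Values are thermal stability changes relative to control samples and are taken from duplicates. They are stated as log2 fold changes. Before quantification by TMTpro 16plex LC-MS/MS with equalised channel sums, K562 cells at 2×10^6 cells/mL were treated with 10 μM compound for 30 min, heated in aliquots for 3 min across 48°C-58°C, pooled, extracted in PBS with 0.5% NP-40 at 4°C, and centrifuged at 21,000xg for 90 min to give the soluble supernatant.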

[2] = compound: CC1=C(SC2=C1C(=N[C@H](C3=NN=C(N32)C)CC(=O)N)C4=CC=C(C=C4)Cl)C
Procedure, shortened: as §1

[3] = compound: CC1=C2C(=CC=C1)N=C(N(C2=O)C3=CC=CC=C3C)CN4C=NC5=C(N=CN=C54)N
Procedure, shortened: as §1

[4] = compound: Cc1sc2c(c1C)C(c1ccc(Cl)cc1)=N[C@@H](CC(=O)OC(C)(C)C)c1nnc(C)n1-2
Procedure, shortened: as §1

[5] = compound: c1ccc([C@@H]2C[C@H]2NC2CCNCC2)cc1
Procedure, shortened: as §1

Measured: log2 fold change

TGM2 (UniProt P21980)
inactive: [1] -0.013 | [2] 0.014 | [3] 0.002 | [4] -0.082 | [5] 0.016

TJAP1 (UniProt Q5JTD0)
inactive: [1] 0.031 | [2] 0.12 | [3] 0.083 | [4] -0.046 | [5] 0.004

TFAP4 (UniProt Q01664)
inactive: [1] -0.055 | [2] -0.077 | [3] 0.03 | [4] 0.004 | [5] 0.041

TFG (UniProt Q92734)
inactive: [1] 0.028 | [2] 0.026 | [3] -0.039 | [4] 0.005 | [5] 0.077

TIMM22 (UniProt Q9Y584)
inactive: [1] -0.021 | [2] -0.068 | [3] -0.208 | [4] -0.093 | [5] -0.097

Two entries picked at random from the list so far, as already listed:
TIMM22 (UniProt Q9Y584)
inactive: [1] -0.021 | [2] -0.068 | [3] -0.208 | [4] -0.093 | [5] -0.097

TGM2 (UniProt P21980)
inactive: [1] -0.013 | [2] 0.014 | [3] 0.002 | [4] -0.082 | [5] 0.016

(list continues)

TIMM50 isoform 2 (UniProt Q3ZCQ8)
inactive: [1] -0.006 | [2] 0.061 | [3] 0.072 | [4] -0.016 | [5] 0

TIAL1 isoform 2 (UniProt Q01085)
inactive: [1] -0.023 | [2] 0.049 | [3] 0.015 | [4] 0.043 | [5] -0.024

TBC1D15 isoform 3 (UniProt Q8TC07)
inactive: [1] -0.072 | [2] 0.013 | [3] 0.045 | [4] 0.005 | [5] -0.019

THOC2 (UniProt Q8NI27)
inactive: [1] -0.049 | [2] -0.061 | [3] 0.09 | [4] 0 | [5] 0.076
